From PubChem BioAssay AID1347076 (National Center for Advancing Translational Sciences (NCATS), 2019)
Where “and” joins values, the source holds several entries; their conditions need not be identical. Identical values can stand only once. In all, about 400,000 compounds went through this assay and about 13,000 (3.2%) were called active. The shares of active, inactive and inconclusive entries below differ from those in the screen. The call rests on the fitted dose curve; in most records, active means well fitted cell-killing curve with a large enough effect; inconclusive means small, poorly fitted or top-dose-only effect, or effect the other way; inactive means flat fitted curve, though single readings scatter. Potencies beside an inconclusive call are fits to weak or partial responses and may not hold up.

test: qHTS assay for MDR1-selective chemotherapeutics: Primary screen using the drug-selected MDR subline cells KB-V1; settings: KB-V1 MDR cells viability, CellTiter-Glo, 72 h; series mostly up to 46.1 µM; further: nearly all actives have a fitted effect of over 60% in size
Procedure, shortened: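 Readout: CellTiter-Glo luminescence, 10 min after addition. Cells: KB-V1 MDR subline, 72 h at 37 degrees C with compound. Analysis: corrected, normalized data fitted to concentration-effect curves.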
Potency means the concentration at half of the fitted maximal effect.

Row | SMILES | Potency
1 | CC(C)OCCCNC(=O)c1ccc(NC(=O)C2=CSCCO2)cc1 | inactive
2 | COc1ccc(C(=O)NCCS(=O)(=O)N(C)C2CCCCC2)cc1 | active: 18.4 µM
3 | O=C(COc1cccc(C(F)(F)F)c1)Nc1ccc(S(=O)(=O)N2CCCCC2)cc1 | inactive
4 | COCCCNC(=O)C[C@H]1C[C@H](C(=O)N2CCCCC2)[C@@]2(CCc3ccccc3)c3[nH]c4cc(-c5ccco5)ccc4c3CCN2C1=O | inactive
5 | Cc1cccc(C(=O)Nc2scc(-c3ccc(Br)cc3)c2C(=O)O)c1 | inconclusive: 11.6 µM [cytotoxic, single point]
6 | CCN1CCN(Cc2ccc(NC(=O)c3cc(NC(=O)c4cncc(-c5cccs5)c4)cc(OC)c3)cc2C(F)(F)F)CC1 | inconclusive: 20.6 µM [cytotoxic, single point] and active: 18.4 µM
7 | CCOCCCn1c(=NC(=O)c2ccco2)c(C(=O)OCC)cc2c(=O)n3cccc(C)c3nc21 | inconclusive: 7.31 µM [cytotoxic, partial curve]
8 | CCNC(=S)NNC(=O)c1cc(-c2cccnc2)nc2ccccc12 | inconclusive: 16.4 µM [cytotoxic, single point]
9 | CC1CCCC(NC(=O)c2ccc(COc3ccccc3)o2)C1C (stereo not drawn) | inactive
10 | COc1cccc(NC(=O)COc2ccc3c(c2)CCC3)c1 | inconclusive: 29.1 µM [rising, single point]
11 | O=C(O)CCc1nn2cc(-c3ccccc3)nc2[nH]c1=O | inconclusive: 18.4 µM [rising, single point]
12 | Cc1cccc(S(=O)(=O)N2CCC(CO)(Cc3ccccc3)CC2)c1 | inconclusive: 29.1 µM [cytotoxic, single point]
13 | CSc1nnc(C2CCN(CC(=O)Nc3ccccc3N3CCOCC3)CC2)n1C(C)C | inconclusive: 18.4 µM [cytotoxic, partial curve]
14 | NC(=O)CC1(CC(=O)O)CCCCC1 | inconclusive: 10.3 µM [rising, partial curve, poor fit]
15 | CCN(CC)C(=O)c1cc(-c2ccccc2OC)on1 | inconclusive: 16.4 µM [cytotoxic, single point]
16 | COc1ccc2cc(C(C)c3nc4ccccc4c(=O)n3N)ccc2c1 (stereo not drawn) | inconclusive: 23.1 µM [cytotoxic, single point]
17 | Cc1ccc(CNC(=O)/C=C/c2cccs2)cc1 | inconclusive: 16.4 µM [cytotoxic, single point]
18 | Cc1cc(Nc2ccccc2)n2nc(C)c(-c3ccccc3)c2n1 | inconclusive: 29.1 µM [cytotoxic, partial curve, poor fit]
19 | C=CCn1c(SCc2nc3ccccc3nc2C)nnc1-c1ccoc1C | inconclusive: 13 µM [cytotoxic, partial curve, poor fit]
20 | O=[N+]([O-])c1ccc(OC(F)F)c(/C=N/n2cnnc2)c1 | inconclusive: 29.1 µM [cytotoxic, single point]
21 | CC(C)CSc1nnc2[nH]c(=O)cc(N)n12 | inconclusive: 29.1 µM [cytotoxic, single point]
22 | CCc1ccn2cc(-c3cc(-c4ccccc4)no3)nc2c1 | inconclusive: 4.61 µM [cytotoxic, full curve, poor fit]

Row | SMILES | Potency
23 | CC1=C(C(=O)Nc2ccccc2)C(c2ccc(O)cc2)n2nc(-c3ccc(Cl)cc3)nc2N1 (stereo not drawn) | inactive
24 | COc1ccc(CNC(=O)C(=O)NCc2cccnc2)cc1 | inactive
25 | Cc1cccc(N2C(=O)CCC2=O)n1 | inactive
26 | COc1ccc(CN2C(=O)CCC2(C)C(=O)NC2CCCCC2)c(OC)c1 (stereo not drawn) | active: 20.6 µM
27 | Oc1c(CN2CCCCC2)cc(COCc2ccccc2)c2cccnc12 | inconclusive: 3.66 µM [cytotoxic, partial curve, poor fit]
28 | Cc1ccc2cn[nH]c2c1NC(=S)NC(=O)c1ccccc1 | active: 20.6 µM
29 | Cc1cc(C)c2nc(N3CCC(C(=O)NCC4CCCO4)CC3)sc2c1 (stereo not drawn) | inconclusive: 9.2 µM [cytotoxic, partial curve]
30 | CCn1c(CN2CCCCC2)nc2cc(NC(=O)COc3ccc(C(C)(C)C)cc3)ccc21 | inactive
31 | O=C(/C=C/c1cccc([N+](=O)[O-])c1)NCCN1C(=O)S/C(=C\c2ccc(F)cc2)C1=O | inconclusive: 3.66 µM [cytotoxic, full curve, poor fit]
32 | Cc1ccc(S(=O)(=O)NCCSc2nnnn2-c2ccccc2)cc1 | inconclusive: 16.4 µM [cytotoxic, partial curve] and inconclusive: 29.1 µM [cytotoxic, single point]
33 | Cn1c(/C=C/c2ccc(Cl)cc2Cl)c([N+](=O)[O-])c(=O)n(C)c1=O | inconclusive: 14.6 µM [cytotoxic, partial curve, poor fit]
34 | COc1ccc2c(c1)NC(c1ccc(Cl)cc1)=NC(c1cccs1)=N2 | inactive
35 | COc1ccc(Cl)cc1S(=O)(=O)NC(C)C(=O)NCc1ccc2c(c1)OCO2 (stereo not drawn) | inactive
36 | COc1ccc2nc(NC(=O)c3ccc([N+](=O)[O-])o3)sc2c1 | inconclusive: 18.4 µM [cytotoxic, single point]
37 | Cc1ccc(NC(=O)COc2ccccc2)c(NC(=O)c2ccccc2C)c1 | active: 5.8 µM
38 | CSCC[C@H](NC(=O)C(C)Oc1ccc(Cl)cc1)c1nc2ccccc2[nH]1 (stereo partly drawn) | inconclusive: 10.3 µM [cytotoxic, partial curve, poor fit]
39 | O=S1(=O)CCN(OCc2ccc(Cl)cc2)CC1 | inconclusive: 7.31 µM [rising, partial curve]
40 | c1ccc(-c2nnc3sc(-c4ccncc4)nn23)cc1 | inactive
41 | CC(C)CN(CC(C)C)S(=O)(=O)N1CCC(C(=O)NCc2cccs2)CC1 | inconclusive: 9.2 µM [cytotoxic, partial curve]
42 | COc1ccc(N2CCN(CCCNC(=O)C(=O)c3c(C)n(C)c4ccccc34)CC2)cc1 | inconclusive: 25.9 µM [rising, single point]
43 | CC(C)(C)c1ccc(-c2nnc(-c3ccccc3NC(=O)c3cccc(C(F)(F)F)c3)o2)cc1 | inconclusive: 32.6 µM [rising, partial curve, poor fit]
